Measured values from US20190315873A1 (AGOMAB THERAPEUTICS, published 2019).
These are yes or no findings as the source states them, for the method shown. For some assays here: Binding calls can cover weak binding; strength is not graded here.

Columns and labels:
llama MET ECD (llama) = assay: ELISA on llama MET ECD
[1] = target: llama-human chimeric MET ECD CH2; assay: ELISA on MET ECD or chimera
[2] = target: llama-human chimeric MET ECD CH3; assay: ELISA on MET ECD or chimera
[3] = target: llama-human chimeric MET ECD CH1; assay: ELISA on MET ECD or chimera
[4] = target: llama-human chimeric MET ECD CH4; assay: ELISA on MET ECD or chimera
[5] = target: llama-human chimeric MET ECD CH5; assay: ELISA on MET ECD or chimera
human MET ECD [6] = target: T1, human MET ECD (human, UniProt P08581 25-932); assay: ELISA on MET ECD or chimera
T1 construct: range 1-932; recombinant ECD made by standard protein engineering; also called hMET; human MET extracellular domain

human MET ECD [7] = target: T1, human MET ECD; assay: ELISA on MET ECD
mouse MET ECD [8] = target: T2, mouse MET ECD (mouse, UniProt P16056 25-931); assay: ELISA on MET ECD
T2 construct: range 1-931; recombinant ECD; also called mMET; mouse MET extracellular domain

[9] = target: human-llama chimeric MET ECD CH6; assay: ELISA on MET chimera
[10] = target: human-llama chimeric MET ECD CH7; assay: ELISA on MET chimera
human MET ECD [11] = target: T1, human MET ECD; assay: SPR and ELISA
mouse MET ECD [12] = target: T2, mouse MET ECD; assay: SPR and ELISA
human MET ECD [13] = target: T1, human MET ECD; assay: ELISA: MET ECD immobilized (100 ng/well), mAb in human IgG1/lambda format in solution (0-40 nM), HRP anti-human Fc
mouse MET ECD [14] = target: T2, mouse MET ECD; assay: as above
[15] = target: human-llama chimeric MET ECD CH6; assay: ELISA on MET ECD or chimera
[16] = target: human-llama chimeric MET ECD CH7; assay: ELISA on MET ECD or chimera
[17] = target: llama-human chimeric MET ECD CH4; assay: ELISA on MET chimera
[18] = target: llama-human chimeric MET ECD CH5; assay: ELISA on MET chimera
human MET ECD [19] = target: T1, human MET ECD; assay: ELISA on MET ECD (FIG. 29)
mouse MET ECD [20] = target: T2, mouse MET ECD; assay: ELISA on MET ECD (FIG. 29)

Binder	binding (llama MET ECD (llama))	binding [1]	binding [2]	binding [3]	binding (human MET ECD [6])	binding (human MET ECD [7])	binding (mouse MET ECD [8])	binding (human MET ECD [11])	binding (mouse MET ECD [12])	also measured
71G2 Fab (Fab, V domains shown) VH: EVQLQESGGGLVQPGGSLRLSCAASGFTFSIYDMSWVRQAPGKGLEWVSTINSDGSSTSYVDSVKGRFTISRDNAKNTLYLQMNSLKPEDTAVYYCAKVYGSTWDVGPMGYGMDYWGKGTLVTVSS VL: SSALTQPSALSVSLGQTARITCQGGSLGSSYAHWYQQKPGQAPVLVIYGDDSRPSGIPERFSGSSSGGTATLTISGAQAEDEDDYYCQSTDSSGNTVFGGGTRLTVL								binds	binds	
71C3 llama-human chimeric mAb (human IgG1/lambda) (antibody, V domains shown) VH: QLQLVESGGGLVQPGGSLRLSCAASGFTFSSHAMSWVRQAPGKGLEWVSAINSGGGSTSYADSVKGRFTISRDNAKNTLYLQMNSLKPEDTAVYYCAKELRFDLARYTDYEAWDYWGQGTQVTVSS VL: SYELTQPSALSVTLGQTAKITCQGGSLGSSYAHWYQQKPGQAPVLVIYDDDSRPSGIPERFSGSSSGGTATLTISGAQAEDEGDYYCQSADSSGNAAVFGGGTHLTVLQ	no binding (tested: 0-20 nM)	binds	binds	binds	binds	binds	binds			binding (human MET ECD [13]): binds; binding (mouse MET ECD [14]): binds; binding [15]: binds; binding [16]: binds; binding [17]: no binding (tested: 0-20 nM); binding [18]: no binding (tested: 0-20 nM); binding (human MET ECD [19]): binds; binding (mouse MET ECD [20]): binds
71C3 Fab (Fab, V domains shown) VH: QLQLVESGGGLVQPGGSLRLSCAASGFTFSSHAMSWVRQAPGKGLEWVSAINSGGGSTSYADSVKGRFTISRDNAKNTLYLQMNSLKPEDTAVYYCAKELRFDLARYTDYEAWDYWGQGTQVTVSS VL: SYELTQPSALSVTLGQTAKITCQGGSLGSSYAHWYQQKPGQAPVLVIYDDDSRPSGIPERFSGSSSGGTATLTISGAQAEDEGDYYCQSADSSGNAAVFGGGTHLTVL								binds	binds	
71A3 llama-human chimeric mAb (human IgG1/lambda) (antibody, V domains shown) VH: EVQLVESGGGLVQPGGSLRLSCAASGFSFKDYDITWVRQAPGKGLEWVSTITSRSGSTSYVDSVKGRFTISGDNAKNTLYLQMNSLKPEDTAVYYCAKVYATTWDVGPLGYGMDYWGKGTLVTVSS VL: SYELTQPSALSVTLGQTAKITCQGGSLGSSYAHWYQQKPGQAPVLVIYDDDSRPSGIPERFSGSSSGGTATLTISGAQAEDEGDYYCQSADSSGNAAVFGGGTHLTVLQ	no binding (tested: 0-20 nM)	binds	binds	binds	binds	binds	binds			binding (human MET ECD [13]): binds; binding (mouse MET ECD [14]): binds; binding [15]: binds; binding [16]: binds; binding [17]: no binding (tested: 0-20 nM); binding [18]: no binding (tested: 0-20 nM); binding (human MET ECD [19]): binds; binding (mouse MET ECD [20]): binds
71D6 Fab (Fab, V domains shown) VH: ELQLVESGGGLVQPGGSLRLSCAASGFTFSSYGMSWVRQAPGKGLEWVSAINSYGGSTSYADSVKGRFTISRDNAKNTLYLQMNSLKPEDTAVYYCAKEVRADLSRYNDYESYDYWGQGTQVTVSS VL: QPVLNQPSALSVTLGQTAKITCQGGSLGARYAHWYQQKPGQAPVLVIYDDDSRPSGIPERFSGSSSGGTATLTISGAQAEDEGDYYCQSADSSGSVFGGGTHLTVL								binds	binds	
71D4 Fab (Fab, V domains shown) VH: ELQLVESGGGLVQPGGSLRLSCAASGFTFSGYGMSWVRQAPGKGLEWVSDINSGGGSTSYADSVKGRFTISRDNAKNTLYLQMNSLKPEDTAVYYCAKDMRLYLARYNDYEAWDYWGQGTQVTVSS VL: SSALTQPSALSVTLGQTAKITCQGGSLGSSYAHWYQQKPGQAPVLVIYDDDSRPSGIPERFSGSSSGGTATLTISGAQAEDEGDYYCQSADSSGNAAVFGGGTHLTVL								binds	binds	
71D4 llama-human chimeric mAb (human IgG1/lambda) (antibody, V domains shown) VH: ELQLVESGGGLVQPGGSLRLSCAASGFTFSGYGMSWVRQAPGKGLEWVSDINSGGGSTSYADSVKGRFTISRDNAKNTLYLQMNSLKPEDTAVYYCAKDMRLYLARYNDYEAWDYWGQGTQVTVSS VL: SSALTQPSALSVTLGQTAKITCQGGSLGSSYAHWYQQKPGQAPVLVIYDDDSRPSGIPERFSGSSSGGTATLTISGAQAEDEGDYYCQSADSSGNAAVFGGGTHLTVLQ	no binding (tested: 0-20 nM)	binds	binds	binds	binds	binds	binds			binding (human MET ECD [13]): binds; binding (mouse MET ECD [14]): binds; binding [15]: binds; binding [16]: binds; binding [17]: no binding (tested: 0-20 nM); binding [18]: no binding (tested: 0-20 nM); binding (human MET ECD [19]): binds; binding (mouse MET ECD [20]): binds
71G3 Fab (Fab, V domains shown) VH: QVQLVESGGGLVQPGGSLRVSCAASGFTFSTYYMSWVRQAPGKGLEWVSDIRTDGGTYYADSVKGRFTMSRDNAKNTLYLQMNSLKPEDTALYYCARTRIFPSGYDYWGQGTQVTVSS VL: QAVVTQEPSLSVSPGGTVTLTCGLSSGSVTTSNYPGWFQQTPGQAPRTLIYNTNSRHSGVPSRFSGSISGNKAALTIMGAQPEDEADYYCSLYPGSTTVFGGGTHLTVL								binds	binds	
71A3 Fab (Fab, V domains shown) VH: EVQLVESGGGLVQPGGSLRLSCAASGFSFKDYDITWVRQAPGKGLEWVSTITSRSGSTSYVDSVKGRFTISGDNAKNTLYLQMNSLKPEDTAVYYCAKVYATTWDVGPLGYGMDYWGKGTLVTVSS VL: SYELTQPSALSVTLGQTAKITCQGGSLGSSYAHWYQQKPGQAPVLVIYDDDSRPSGIPERFSGSSSGGTATLTISGAQAEDEGDYYCQSADSSGNAAVFGGGTHLTVL								binds	binds	

Continued, in another order:

binding (llama MET ECD (llama))	binding [1]	binding [2]	binding [3]	binding (human MET ECD [6])	binding (human MET ECD [7])	binding (mouse MET ECD [8])	binding (human MET ECD [11])	binding (mouse MET ECD [12])	Binder	also measured
no binding (tested: 0-20 nM)	binds	binds	binds	binds	binds	binds			76G7 llama-human chimeric mAb (human IgG1/lambda) (antibody, V domains shown) VH: QVQLVESGGNLVQPGGSLRLSCAASGFTFSNYYMSWVRQAPGKGLEWVSDIYSDGSTTWYSDSVKGRFTISRDNAKNTLSLQMNSLKSEDTAVYYCARVKIYPGGYDAWGQGTQVTVSS VL: QAGLTQPPSVSGSPGKTVTISCAGNSSDVGYGNYVSWYQQFPGMAPKLLIYLVNKRASGITDRFSGSKSGNTASLTISGLQSEDEADYYCASYTGSNNIVFGGGTHLTVLQ	binding [4]: binds; binding [5]: binds; binding [9]: no binding (tested: 0-20 nM); binding [10]: no binding (tested: 0-20 nM)
							binds	binds	76G7 Fab (Fab, V domains shown) VH: QVQLVESGGNLVQPGGSLRLSCAASGFTFSNYYMSWVRQAPGKGLEWVSDIYSDGSTTWYSDSVKGRFTISRDNAKNTLSLQMNSLKSEDTAVYYCARVKIYPGGYDAWGQGTQVTVSS VL: QAGLTQPPSVSGSPGKTVTISCAGNSSDVGYGNYVSWYQQFPGMAPKLLIYLVNKRASGITDRFSGSKSGNTASLTISGLQSEDEADYYCASYTGSNNIVFGGGTHLTVL	
							binds	binds	76H10 Fab (Fab, V domains shown) VH: QLQLVESGGGLVQPGGSLRVSCTASGFTFNTYYMTWVRQAPGKGLEWVSDINSGGGTYYADSVKGRFTISRDNAKNTLYLQMNSLKPEDTALYYCVRVRIWPVGYDYWGQGTQVTVSS VL: QAVVTQEPSLSVSPGGTVTLTCGLSSGSVTTSNYPGWFQQTPGQAPRTLIYNTNNRHSGVPSRFSGSISGNKAALTITGAQPEDEADYYCSLYTGSYTTVFGGGTHLTVL	
							binds	binds	72F8 Fab (Fab, V domains shown) VH: ELQLVESGGGLVQPGGSLRLSCAASGFTFSNYVMSWVRQAPGKGLEWVSDTNSGGSTSYADSVKGRFTISRDNAKNTLYLQMNSLKPEDTALYYCARSFFYGMNYWGKGTQVTVSS VL: QSALTQPPSLSASPGSSVRLTCTLSSGNNIGSYDISWYQQKAGSPPRYLLNYYTDSRKHQDSGVPSRFSGSKDASANAGLLLISGLQPEDEADYYCSAYKSGSYRWVFGGGTHVTVL	
